According to article doi:10.1101/2022.05.10.491418:
No constants are given. Whether binding was seen depends on the method and setting. Binding seen in cells or lysates may run through a third protein. Some entries that bind do so weakly or less than the wild type. For some assays here: Tags and fused reporters may be left off the sequences shown.

T1: CHS3_Col-0 (clade 1), wild type, HF-tagged (Arabidopsis thaliana), Q9FKN7
T1 chain: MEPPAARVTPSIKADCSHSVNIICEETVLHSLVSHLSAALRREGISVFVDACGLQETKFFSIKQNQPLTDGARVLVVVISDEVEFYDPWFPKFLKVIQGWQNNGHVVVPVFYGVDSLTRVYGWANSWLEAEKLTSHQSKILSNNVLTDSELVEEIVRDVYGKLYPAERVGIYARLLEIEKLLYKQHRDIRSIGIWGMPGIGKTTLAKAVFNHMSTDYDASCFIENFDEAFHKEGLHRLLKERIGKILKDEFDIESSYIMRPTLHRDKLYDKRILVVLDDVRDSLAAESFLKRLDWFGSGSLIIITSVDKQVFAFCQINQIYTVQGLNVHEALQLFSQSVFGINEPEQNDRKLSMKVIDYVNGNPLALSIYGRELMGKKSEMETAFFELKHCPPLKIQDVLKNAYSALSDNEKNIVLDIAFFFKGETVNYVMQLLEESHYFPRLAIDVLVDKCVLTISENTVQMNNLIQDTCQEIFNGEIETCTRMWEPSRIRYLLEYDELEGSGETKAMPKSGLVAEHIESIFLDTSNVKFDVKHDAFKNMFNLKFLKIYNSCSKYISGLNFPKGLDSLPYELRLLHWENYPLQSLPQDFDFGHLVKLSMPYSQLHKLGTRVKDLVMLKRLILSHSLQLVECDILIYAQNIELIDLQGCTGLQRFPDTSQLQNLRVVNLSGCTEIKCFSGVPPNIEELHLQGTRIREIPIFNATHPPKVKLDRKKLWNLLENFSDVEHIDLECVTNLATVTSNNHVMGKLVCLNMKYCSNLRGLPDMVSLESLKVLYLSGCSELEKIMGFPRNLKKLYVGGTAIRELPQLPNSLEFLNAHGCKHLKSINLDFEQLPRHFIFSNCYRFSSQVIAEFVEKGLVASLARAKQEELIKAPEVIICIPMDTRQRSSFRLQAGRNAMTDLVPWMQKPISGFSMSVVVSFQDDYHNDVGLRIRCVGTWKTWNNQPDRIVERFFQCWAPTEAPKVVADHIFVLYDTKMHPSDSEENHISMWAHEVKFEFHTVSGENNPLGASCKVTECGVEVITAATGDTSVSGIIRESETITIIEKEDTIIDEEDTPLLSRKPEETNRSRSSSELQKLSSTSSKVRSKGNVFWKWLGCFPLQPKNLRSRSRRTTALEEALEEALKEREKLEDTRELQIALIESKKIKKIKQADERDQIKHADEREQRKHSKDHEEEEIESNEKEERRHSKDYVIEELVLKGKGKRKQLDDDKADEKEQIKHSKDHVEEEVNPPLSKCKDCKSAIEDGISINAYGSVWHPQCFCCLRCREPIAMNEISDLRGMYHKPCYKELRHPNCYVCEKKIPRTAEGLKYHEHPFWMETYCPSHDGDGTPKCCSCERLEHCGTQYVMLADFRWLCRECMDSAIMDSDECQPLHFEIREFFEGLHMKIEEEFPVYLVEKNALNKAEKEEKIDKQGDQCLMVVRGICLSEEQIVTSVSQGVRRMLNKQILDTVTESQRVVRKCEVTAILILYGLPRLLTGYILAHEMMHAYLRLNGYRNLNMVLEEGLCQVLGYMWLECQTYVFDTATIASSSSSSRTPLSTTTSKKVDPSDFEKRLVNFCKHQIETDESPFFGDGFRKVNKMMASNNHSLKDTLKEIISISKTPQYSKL

B1: BAK1 (BRI1-ASSOCIATED RECEPTOR KINASE), Col-0, Q94F62 26-615 (receptor)
chain: NAEGDALSALKNSLADPNKVLQSWDATLVTPCTWFHVTCNSDNSVTRVDLGNANLSGQLVMQLGQLPNLQYLELYSNNITGTIPEQLGNLTELVSLDLYLNNLSGPIPSTLGRLKKLRFLRLNNNSLSGEIPRSLTAVLTLQVLDLSNNPLTGDIPVNGSFSLFTPISFANTKLTPLPASPPPPISPTPPSPAGSNRITGAIAGGVAAGAALLFAVPAIALAWWRRKKPQDHFFDVPAEEDPEVHLGQLKRFSLRELQVASDNFSNKNILGRGGFGKVYKGRLADGTLVAVKRLKEERTQGGELQFQTEVEMISMAVHRNLLRLRGFCMTPTERLLVYPYMANGSVASCLRERPESQPPLDWPKRQRIALGSARGLAYLHDHCDPKIIHRDVKAANILLDEEFEAVVGDFGLAKLMDYKDTHVTTAVRGTIGHIAPEYLSTGKSSEKTDVFGYGVMLLELITGQRAFDLARLANDDDVMLLDWVKGLLKEKKLEALVDVDLQGNYKDEEVEQLIQVALLCTQSSPMERPKMSEVVRMLEGDGLAERWEEWQKEEMFRQDFNYPTHHPAVSGWIIGDSTSQIENEYPSGPR
B2: BKK1 (BAK1-LIKE 1), Col-0 (receptor, UniProt Q9SKG5 34-620)
chain: DALTQLKNSLSSGDPANNVLQSWDATLVTPCTWFHVTCNPENKVTRVDLGNAKLSGKLVPELGQLLNLQYLELYSNNITGEIPEELGDLVELVSLDLYANSISGPIPSSLGKLGKLRFLRLNNNSLSGEIPMTLTSVQLQVLDISNNRLSGDIPVNGSFSLFTPISFANNSLTDLPEPPPTSTSPTPPPPSGGQMTAAIAGGVAAGAALLFAVPAIAFAWWLRRKPQDHFFDVPAEEDPEVHLGQLKRFTLRELLVATDNFSNKNVLGRGGFGKVYKGRLADGNLVAVKRLKEERTKGGELQFQTEVEMISMAVHRNLLRLRGFCMTPTERLLVYPYMANGSVASCLRERPEGNPALDWPKRKHIALGSARGLAYLHDHCDQKIIHRDVKAANILLDEEFEAVVGDFGLAKLMNYNDSHVTTAVRGTIGHIAPEYLSTGKSSEKTDVFGYGVMLLELITGQKAFDLARLANDDDIMLLDWVKEVLKEKKLESLVDAELEGKYVETEVEQLIQMALLCTQSSAMERPKMSEVVRMLEGDGLAERWEEWQKEEMPIHDFNYQAYPHAGTDWLIPYSNSLIENDYPSGPR

Legend:
[1] = biological target: T1, CHS3_Col-0 (clade 1), wild type, …; assay: co-IP; conditions: remark: other sources report otherwise
[2] = biological target: CHS3_Col-0 (clade 1), wild type, HF-tagged (Arabidopsis thaliana) (UniProt Q9FKN7); assay: co-IP

Row | Binder | binding [1] | binding [2]
1 | B1 | binds | 
2 | B2 |  | binds
